Assay results from article PMC5058708.

By UniProt entry, the sequences of proteins in these tests, tags left out. Residues count along the entry.
UniProt P61589: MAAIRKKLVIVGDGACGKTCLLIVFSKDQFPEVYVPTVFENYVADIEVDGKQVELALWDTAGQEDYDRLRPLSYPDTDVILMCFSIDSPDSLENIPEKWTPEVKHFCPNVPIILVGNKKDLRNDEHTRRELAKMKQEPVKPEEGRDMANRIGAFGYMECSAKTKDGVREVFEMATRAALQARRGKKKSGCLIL
UniProt Q66HG5, residues 29-663: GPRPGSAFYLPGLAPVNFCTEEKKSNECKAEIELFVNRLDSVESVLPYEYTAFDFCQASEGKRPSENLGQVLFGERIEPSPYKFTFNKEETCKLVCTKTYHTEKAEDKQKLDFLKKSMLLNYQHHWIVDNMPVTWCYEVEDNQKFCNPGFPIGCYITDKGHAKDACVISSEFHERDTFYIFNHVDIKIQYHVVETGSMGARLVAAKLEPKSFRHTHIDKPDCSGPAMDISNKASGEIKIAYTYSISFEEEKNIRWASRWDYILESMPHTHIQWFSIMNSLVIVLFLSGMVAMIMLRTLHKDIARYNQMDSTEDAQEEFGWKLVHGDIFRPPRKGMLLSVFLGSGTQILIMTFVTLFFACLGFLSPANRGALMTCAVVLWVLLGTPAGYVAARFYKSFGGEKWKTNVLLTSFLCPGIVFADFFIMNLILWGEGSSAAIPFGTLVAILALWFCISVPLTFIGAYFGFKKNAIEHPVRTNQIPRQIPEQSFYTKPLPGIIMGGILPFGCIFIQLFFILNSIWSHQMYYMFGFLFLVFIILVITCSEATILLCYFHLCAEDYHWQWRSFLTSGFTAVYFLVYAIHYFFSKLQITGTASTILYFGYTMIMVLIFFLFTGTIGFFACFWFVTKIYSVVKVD
UniProt O35763: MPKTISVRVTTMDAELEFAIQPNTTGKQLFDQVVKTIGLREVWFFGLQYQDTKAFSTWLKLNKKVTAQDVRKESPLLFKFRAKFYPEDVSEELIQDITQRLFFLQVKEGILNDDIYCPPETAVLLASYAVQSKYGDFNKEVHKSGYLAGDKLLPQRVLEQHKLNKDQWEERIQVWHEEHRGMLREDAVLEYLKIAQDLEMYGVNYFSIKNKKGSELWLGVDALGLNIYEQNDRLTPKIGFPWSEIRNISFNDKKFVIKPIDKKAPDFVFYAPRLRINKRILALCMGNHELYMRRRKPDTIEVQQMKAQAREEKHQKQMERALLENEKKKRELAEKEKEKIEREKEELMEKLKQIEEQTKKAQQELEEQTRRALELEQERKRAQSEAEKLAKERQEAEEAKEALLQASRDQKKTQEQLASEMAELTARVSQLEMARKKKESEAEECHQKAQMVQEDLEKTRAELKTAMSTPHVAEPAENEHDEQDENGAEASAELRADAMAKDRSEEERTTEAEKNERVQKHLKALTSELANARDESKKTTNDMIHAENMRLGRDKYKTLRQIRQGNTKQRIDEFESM
UniProt A0ACM8QGX5: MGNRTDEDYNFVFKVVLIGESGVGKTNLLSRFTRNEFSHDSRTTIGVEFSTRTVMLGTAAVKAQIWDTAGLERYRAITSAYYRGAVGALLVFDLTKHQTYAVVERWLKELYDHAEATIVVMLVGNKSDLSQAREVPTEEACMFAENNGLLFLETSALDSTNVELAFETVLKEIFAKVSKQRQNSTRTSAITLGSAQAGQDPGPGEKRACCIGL

B1: lactadherin 2 (protein, UniProt P70490 23-427)
chain: ASGDFCDSSLCLNGGTCLMGQDNDIYCLCPEGFTGLVCNETEKGPCSPNPCFHDAKCLVTEDTQRGDIFTEYICQCPVGYSGIHCELGCSTKLGLEGGAIADSQISASSVYMGFMGLQRWGPELARLYRTGIVNAWTASSYDSKPWIQVDFLRKMRVSGVMTQGASRAGRAEYLKTFKVAYSLDGRRFEFIQDESGTGDKEFMGNQDNNSLKINMFNPTLEAQYIRLYPVSCHRGCTLRFELLGCELHGCSEPLGLKNNTIPDSQITASSSYKTWNLRAFGWYPHLGRLDNQGKINAWTAQSNSAKEWLQVDLGTQKKVTGIITQGARDFGHIQYVASYKVAHSDDGVQWTVYEEQGTSKVFQGNLDNNSHKKNIFEKPFMARYVRVLPLSWHNRITLRLELLGC
B2: Sec31a (protein, UniProt Q9Z2Q1 1-1249)
chain: MKLKEIDRTAMQAWSPAQNHPIYLATGTSAQQLDATFSTNASLEIFELDLSDPSLDMKSCATFSSSHRYHKLIWGPHKMDSKGDVSGVLIAGGENGNIILYDPSKIIAGDKEVVIAQKDKHTGPVRALDVNIFQTNLVASGANESEIYIWDLNNFATPMTPGAKTQPPEDISCIAWNRQVQHILASASPSGRATVWDLRKNEPIIKVSDHSNRMHCSGLAWHPDVATQMVLASEDDRLPVVQMWDLRFASSPLRVLENHARGILAIAWSMADPELLLSCGKDAKILCSNPNTGEVLYELPTNTQWCFDIQWCPRNPAVLSAASFDGRIRVYSIMGGSIDGLRQKQVDKLSSSFGNLDPFGTGQPLPPLQIPQQTSQHSIVLPLKKPPKWIRRPVGASFSFGGKLVTFENVTGQPQQGAEQPRRQPVFISQVVTEKDFLSRSEQLQHVVQSQGFISYCQKKIDASQTDFEKNVWSFLKVNFEEDSRGKYLELLGYRREDLGEKIALALNRVDGSDVALKDSDRVAQSDGEESPAEEGQLLGERIKEEKQECDFLPSAGGGTFNISVSGDIDGLITRALLTGNFESAVDLCLHDNRMADAIILAIAGGQELLAQTQKKYFAKSQSKITRLITAVVMKNWKEIVESCDLKNWREALAAVLTYAKPDEFSALCDLLGARLESEGDSLLRTQACLCYICAGNVERLVACWTKAQDGSNPLSLQDLIEKVVILRKAVQLTQALDTNTVGALLAEKMSQYANLLAAQGSIAAALAFLPDNTNQPDIVQLRDRLCRAQGRSVPGQESSRSSYEGQPLPKGGPGPLAGHPQVSRVQSQQYYPQVRIAPTVTTWSDRTPTALPSHPPAACPSDTQGGNPPPPGFIMHGNVVPNSPAPLPTSPGHMHSQPPPYPQPQPYQPAQQYSLGTGGSAVYRPQQPVAPPASKRYPNAPYVSPVASYSGQPHMYTAQPASSPTSSSAPLPPPPSSGASFQHGGPGAPPSSSAYALPPGTTGTPPAASELPASQRTGPQNGWNDPPALNRVPKKKKLPENFMPPVPITSPIMNPGGDPQPQGLQQQPSASGPRSSHASFPQPHLAGGQPFHGIQQPLAQTGMPPSFSKPNTEGAPGAPIGNTIQHVQALPTEKITKKPIPDEHLILKTTFEDLIQRCLSSATDPQTKRKLDDASKRLECLYDKLRDQTLSPTIISGLHSIARSIETRNYSEGLTVHTHIVSTSNFSETSAFMPVLKVVLSQASKLGV

Assays:
Experiment in all cases: affinity purification with mass spectrometry; mild lysis (Lubrol); ASML^wt lysates precipitated with anti-EpC and anti-cld7, ASML-EpC^kd, -EpC^mAG and -cld7^mPalm lysates with anti-cld7; SDS-PAGE, nanoLC-ESI-MS/MS on an LTQ orbitrap
[1] = target: T1, claudin7 (rat (endogenous in ASML)) (UniProt Q9Z1L1)
T1 sequence (chain, palmitoylated (palmitoylation is prevented by mutating AA184 and AA186)): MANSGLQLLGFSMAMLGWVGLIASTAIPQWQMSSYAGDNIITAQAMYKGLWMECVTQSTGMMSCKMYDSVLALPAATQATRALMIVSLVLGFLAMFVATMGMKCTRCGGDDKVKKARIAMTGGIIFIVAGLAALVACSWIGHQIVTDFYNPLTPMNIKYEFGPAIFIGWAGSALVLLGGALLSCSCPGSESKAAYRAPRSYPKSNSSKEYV

[2] = target: cld7 with a mutation in the palmitoylation site (UniProt Q9Z1L1)
[3] = target: cld7 with a mutation in the palmitoylation site (UniProt Q9Z1L1); remark: listed apart in the source
[4] = target: T1, claudin7 (rat (endogenous in ASML)); remark: listed apart in the source

Molecule | binding [1] | other results
RhoA (from UniProt P61589 1-193) | binds | 
TM9SF2 (from UniProt Q66HG5 29-663) |  | binding [2]: binds
aldose reductase (from UniProt P07943 1-316) (enzyme) |  | binding [2]: binds
moesin (from UniProt O35763 1-577) | binds | 
myoferlin (rat (endogenous in ASML)) | binds | 
rab25 (from UniProt A0ACM8QGX5 1-213) | binds | 
B1 |  | binding [3]: binds
B2 |  | binding [4]: binds

Read-outs that look alike come from different tables or passages of the source. Results are given in words; binding and its absence hold for the method and conditions named. In cells and extracts the contact can be indirect. These calls come from enrichment with a bait or labelling near it, and not all partners need be listed.
